Measured values as given in US20140213502A1, “CHEMICAL MODIFICATION OF APOLIPOPROTEIN MIMETIC PEPTIDES FOR THE PRODUCTION OF THERAPEUTIC AGENTS” (United States Department of Health and Human Services, priority 2011, published 2014).
Some results were stated once for a whole list of compounds, not compound by compound. Bridge positions count the residues as written; N and C are the ends. Square brackets hold non-standard residues; d marks the D form. Peptide text beside a SMILES is read from it. R8 = C=CCCCCCC[C@@](C)(N)C(=O)O; S5 = C=CCCC[C@](C)(N)C(=O)O

Chains of the proteins cited; added tags and fusions are not shown.
UniProt O95477, whole entry: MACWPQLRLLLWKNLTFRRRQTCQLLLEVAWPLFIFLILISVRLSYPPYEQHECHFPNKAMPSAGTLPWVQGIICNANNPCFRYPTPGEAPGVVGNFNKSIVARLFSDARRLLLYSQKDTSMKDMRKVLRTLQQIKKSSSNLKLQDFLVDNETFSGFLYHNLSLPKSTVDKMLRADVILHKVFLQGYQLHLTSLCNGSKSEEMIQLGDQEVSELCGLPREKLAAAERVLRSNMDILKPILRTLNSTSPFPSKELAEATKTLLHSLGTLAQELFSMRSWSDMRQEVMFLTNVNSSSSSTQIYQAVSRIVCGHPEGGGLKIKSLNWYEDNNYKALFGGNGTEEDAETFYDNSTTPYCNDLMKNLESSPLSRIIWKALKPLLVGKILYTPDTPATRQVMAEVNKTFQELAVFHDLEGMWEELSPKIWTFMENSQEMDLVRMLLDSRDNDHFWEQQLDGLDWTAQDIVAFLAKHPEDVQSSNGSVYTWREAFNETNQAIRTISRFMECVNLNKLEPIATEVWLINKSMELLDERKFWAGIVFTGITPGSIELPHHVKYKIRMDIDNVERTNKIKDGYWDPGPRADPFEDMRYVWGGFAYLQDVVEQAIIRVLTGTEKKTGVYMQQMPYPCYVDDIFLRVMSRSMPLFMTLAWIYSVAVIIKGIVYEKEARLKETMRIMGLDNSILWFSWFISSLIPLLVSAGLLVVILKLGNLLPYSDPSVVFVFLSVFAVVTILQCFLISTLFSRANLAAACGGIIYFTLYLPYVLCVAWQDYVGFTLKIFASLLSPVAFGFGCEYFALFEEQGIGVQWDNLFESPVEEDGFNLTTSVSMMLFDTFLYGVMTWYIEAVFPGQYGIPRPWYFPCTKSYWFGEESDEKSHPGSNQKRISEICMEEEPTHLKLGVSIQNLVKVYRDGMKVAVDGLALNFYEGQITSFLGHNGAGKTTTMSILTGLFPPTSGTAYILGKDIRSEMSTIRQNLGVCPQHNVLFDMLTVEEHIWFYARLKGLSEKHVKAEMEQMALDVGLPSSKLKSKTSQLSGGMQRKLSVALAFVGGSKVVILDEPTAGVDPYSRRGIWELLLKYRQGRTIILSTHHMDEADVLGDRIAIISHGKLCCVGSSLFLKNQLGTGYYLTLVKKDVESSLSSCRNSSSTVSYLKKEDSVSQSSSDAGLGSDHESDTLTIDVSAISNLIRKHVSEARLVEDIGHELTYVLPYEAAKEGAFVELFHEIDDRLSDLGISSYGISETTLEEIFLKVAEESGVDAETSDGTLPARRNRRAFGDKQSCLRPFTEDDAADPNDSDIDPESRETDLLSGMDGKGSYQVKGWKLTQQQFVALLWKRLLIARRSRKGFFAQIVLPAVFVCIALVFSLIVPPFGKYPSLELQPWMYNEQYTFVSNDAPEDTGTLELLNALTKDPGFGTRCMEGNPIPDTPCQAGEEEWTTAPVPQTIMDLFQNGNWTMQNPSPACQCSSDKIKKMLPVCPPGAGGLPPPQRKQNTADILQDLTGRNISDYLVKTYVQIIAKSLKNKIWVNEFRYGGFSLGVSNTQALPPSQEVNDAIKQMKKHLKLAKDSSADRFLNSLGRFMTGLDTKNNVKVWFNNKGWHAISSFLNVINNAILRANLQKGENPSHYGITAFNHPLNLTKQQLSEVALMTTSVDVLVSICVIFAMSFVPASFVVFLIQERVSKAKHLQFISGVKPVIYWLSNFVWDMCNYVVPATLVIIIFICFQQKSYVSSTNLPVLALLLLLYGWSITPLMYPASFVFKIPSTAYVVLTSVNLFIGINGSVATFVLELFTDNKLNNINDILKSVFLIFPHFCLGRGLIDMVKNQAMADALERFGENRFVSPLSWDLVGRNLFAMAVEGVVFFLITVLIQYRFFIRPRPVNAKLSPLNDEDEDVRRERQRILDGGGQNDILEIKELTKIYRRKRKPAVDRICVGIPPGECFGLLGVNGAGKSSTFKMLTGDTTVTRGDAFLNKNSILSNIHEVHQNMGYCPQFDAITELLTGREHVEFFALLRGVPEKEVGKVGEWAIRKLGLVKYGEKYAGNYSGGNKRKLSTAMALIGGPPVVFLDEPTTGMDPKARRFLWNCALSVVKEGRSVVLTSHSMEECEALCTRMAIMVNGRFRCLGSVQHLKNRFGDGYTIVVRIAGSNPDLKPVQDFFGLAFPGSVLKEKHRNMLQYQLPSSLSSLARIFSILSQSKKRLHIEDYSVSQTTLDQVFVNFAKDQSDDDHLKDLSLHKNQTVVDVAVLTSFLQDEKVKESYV

Target: T1, ABCA1 transporter (Homo sapiens, UniProt O95477)
T1 construct: expressed in transfected cells; host or cells: BHK cells
Assay: Cholesterol efflux, BHK cells stably transfected with human ABCA1
Type: cell-based
Conditions: 18 h, relative to unstapled A10
Experimental: FIG. 4 depicts the results of testing the effect of the peptides on cholesterol efflux. Peptides A10, S1A10, S2A10, 5A at the indicated concentration were incubated with (Panel A) BHK control cells, (Panel B) ABC-A1 transfected BHK cells, (Panel C) ABC-G1 transfected BHK cells, and (Panel D) SR-B1 transfected BHK cells and monitored for cholesterol efflux. Percent of cholesterol efflux over 18 h is expressed as mean±SD of triplicate determinations.
The ability of the three peptides and the bi-helical 5A peptide to promote cholesterol efflux was tested on BHK cells stably transfected with human ABCA1, ABCG1 or the human SRBI receptor (FIGS. 5 and 6). Cholesterol efflux studies were performed, as described previously. Control BHK cells and BHK cells stably transfected with either human ABCA1, ABCG1 or SR-BI were radiolabeled with [^3H] cholesterol for 24 h, washed and then treated with the indicated concentration of peptides for 18 h. Percent efflux was calculated by subtracting the radioactive counts in blank medium (alpha-minimal essential media plus 10 μg/ml bovine serum albumin) from the radioactive counts in the presence of a peptide and then dividing the result by the sum of the radioactive counts in the medium plus the cell fraction.

SMILES | increase in cholesterol efflux after hydrocarbon stapling
CC(=O)N[C@H](C(=O)N[C@@H](CC(C)C)C(=O)N[C@@H](CCC(=O)O)C(=O)N[C@@H](CO)C(=O)N[C@@H](Cc1ccccc1)C(=O)N[C@@H](CCCCN)C(=O)N[C@H](C(=O)N[C@@H](CO)C(=O)N[C@]1(C)CCCCCCC=CCCCCCC[C@](C)(C(=O)N[C@@H](CCC(=O)O)C(=O)N[C@@H](CCC(=O)O)C(=O)N[C@@H](Cc2ccc(O)cc2)C(=O)N[C@H](C(=O)N[C@@H](CCCCN)C(=O)N[C@@H](CCCCN)C(=O)N[C@@H](CC(C)C)C(=O)N[C@@H](CC(N)=O)C(=O)N[C@H](C(=O)N[C@@H](CCC(N)=O)C(N)=O)[C@@H](C)O)[C@@H](C)O)NC(=O)[C@H](C)NC(=O)[C@H](CO)NC(=O)[C@H](CC(C)C)NC1=O)C(C)C)C(C)C [S1A10] (Ac-VLESFKVS[R8]LSA[R8]EEYTKKLNTQ-NH2; staple 9-13; N-terminus and C-terminus assumed) | > 10 fold
CC(=O)N[C@H](C(=O)N[C@@H](CC(C)C)C(=O)N[C@@H](CCC(=O)O)C(=O)N[C@@H](CO)C(=O)N[C@@H](Cc1ccccc1)C(=O)N[C@@H](CCCCN)C(=O)N[C@H](C(=O)N[C@@H](CO)C(=O)N[C@@]1(C)CCCC=CCCCCCC[C@](C)(C(=O)N[C@H](C(=O)N[C@@H](CCCCN)C(=O)N[C@@H](CCCCN)C(=O)N[C@@H](CC(C)C)C(=O)N[C@@H](CC(N)=O)C(=O)N[C@H](C(=O)N[C@@H](CCC(N)=O)C(N)=O)[C@@H](C)O)[C@@H](C)O)NC(=O)[C@H](CCC(=O)O)NC(=O)[C@H](CCC(=O)O)NC(=O)[C@H](CC(C)C)NC(=O)[C@H](C)NC(=O)[C@H](CO)NC(=O)[C@H](CC(C)C)NC1=O)C(C)C)C(C)C [S2A10] (Ac-VLESFKVS[S5]LSALEE[R8]TKKLNTQ-NH2; staple 9-16; N-terminus and C-terminus assumed) | > 10 fold
